{"source": "PubChem BioAssay AID743454 (Peter MacCallum Cancer Centre, 2014)", "assay": "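Knock-downs lowering viability or raising caspase 3/7 activity in vorinostat-treated resistant cells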 (primary screen)", "cell system": "human HCT116-VR colon cancer cells, selected for vorinostat resistance", "knock-down reagent": "siRNA pool against human genes, 40 nM siRNA pool", "time to read-out": "vorinostat for 24 h, read-out about 72 h after transfection", "conditions": "vorinostat at 2.5 µM final", "measurement": "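Cell viability by CellTiter-Fluor and caspase 3/7 activity by luminescence, each scaled to mock wells per plate, duplicates averaged, then robust z-scored over all plates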", "scale": "viability robust z-score: higher = more viable cells than screen typical; caspase robust z-score: higher = more caspase 3/7 activity than screen typical", "active means": "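Hits are knock-downs in viability class RV1/RV2 or caspase class CA1/CA2, excluding ones that killed cells in the no-drug cell-count arm; hits then retested with single siRNAs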", "note": "Here is an unselected part of about 18,000 reagents tested. Over the whole deposit, 450 (2.5%) were called active. 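Single biological run; no consistent viability z cut-off exists, so the class columns, not z-scores, define the calls.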"}
{"gene": "OR10T2", "viability hit class": "no change", "caspase hit class": "no change", "viability robust z-score": -1.56, "caspase robust z-score": 0.15, "outcome": "inactive"}
{"gene": "AADACL4", "viability hit class": "no change", "caspase hit class": "no change", "viability robust z-score": 1.33, "caspase robust z-score": -0.31, "outcome": "inactive"}
{"gene": "FGFR3", "viability hit class": "no change", "caspase hit class": "no change", "viability robust z-score": -0.79, "caspase robust z-score": 2.79, "outcome": "inactive"}
{"gene": "PTPN4", "viability hit class": "no change", "caspase hit class": "no change", "viability robust z-score": 0.32, "caspase robust z-score": 0.55, "outcome": "inactive"}
{"gene": "TRADD", "viability hit class": "no change", "caspase hit class": "no change", "viability robust z-score": 0.02, "caspase robust z-score": 0.05, "outcome": "inactive"}
{"gene": "IFNL2", "viability hit class": "no change", "caspase hit class": "no change", "viability robust z-score": 1.61, "caspase robust z-score": 0.04, "outcome": "inactive"}
{"gene": "H2AC25", "viability hit class": "no change", "caspase hit class": "no change", "viability robust z-score": 0.09, "caspase robust z-score": -0.95, "outcome": "inactive"}
{"gene": "OR4M1", "viability hit class": "no change", "caspase hit class": "no change", "viability robust z-score": -0.03, "caspase robust z-score": -0.33, "outcome": "inactive"}
{"gene": "SLC35D2", "viability hit class": "no change", "caspase hit class": "no change", "viability robust z-score": -1.55, "caspase robust z-score": 3.89, "outcome": "inactive"}
{"gene": "STXBP6", "viability hit class": "no change", "caspase hit class": "no change", "viability robust z-score": 0.62, "caspase robust z-score": -0.8, "outcome": "inactive"}
{"gene": "REG4", "viability hit class": "no change", "caspase hit class": "no change", "viability robust z-score": -0.46, "caspase robust z-score": -1.19, "outcome": "inactive"}
{"gene": "HIBCH", "viability hit class": "no change", "caspase hit class": "no change", "viability robust z-score": 0.42, "caspase robust z-score": -0.56, "outcome": "inactive"}
{"gene": "CT47A5", "viability hit class": "no change", "caspase hit class": "no change", "viability robust z-score": -0.2, "caspase robust z-score": 2.44, "outcome": "inactive"}
{"gene": "KRCC1", "viability hit class": "no change", "caspase hit class": "no change", "viability robust z-score": -0.08, "caspase robust z-score": 0.42, "outcome": "inactive"}
{"gene": "ARL13B", "viability hit class": "no change", "caspase hit class": "no change", "viability robust z-score": 0.22, "caspase robust z-score": -0.12, "outcome": "inactive"}
{"gene": "C12orf71", "viability hit class": "no change", "caspase hit class": "no change", "viability robust z-score": -0.64, "caspase robust z-score": 2.29, "outcome": "inactive"}
{"gene": "PRRG3", "viability hit class": "no change", "caspase hit class": "no change", "viability robust z-score": 0.15, "caspase robust z-score": -0.31, "outcome": "inactive"}
{"gene": "ZFX", "viability hit class": "no change", "caspase hit class": "no change", "viability robust z-score": -0.55, "caspase robust z-score": -1.35, "outcome": "inactive"}
{"gene": "IQCK", "viability hit class": "no change", "caspase hit class": "no change", "viability robust z-score": -0.94, "caspase robust z-score": 1.02, "outcome": "inactive"}
{"gene": "LONRF2", "viability hit class": "no change", "caspase hit class": "no change", "viability robust z-score": -1.77, "caspase robust z-score": 2.1, "outcome": "inactive"}
{"gene": "ALKAL2", "viability hit class": "no change", "caspase hit class": "no change", "viability robust z-score": 0.72, "caspase robust z-score": -0.92, "outcome": "inactive"}
{"gene": "TRAF6", "viability hit class": "no change", "caspase hit class": "no change", "viability robust z-score": -0.01, "caspase robust z-score": 0.62, "outcome": "inactive"}
{"gene": "DNAJC13", "viability hit class": "no change", "caspase hit class": "no change", "viability robust z-score": -0.78, "caspase robust z-score": 0.86, "outcome": "inactive"}
{"gene": "ARHGDIG", "viability hit class": "no change", "caspase hit class": "no change", "viability robust z-score": 1.6, "caspase robust z-score": 0.84, "outcome": "inactive"}
{"gene": "TRDN", "viability hit class": "no change", "caspase hit class": "no change", "viability robust z-score": -0.68, "caspase robust z-score": -0.66, "outcome": "inactive"}
{"gene": "OR51I2", "viability hit class": "no change", "caspase hit class": "no change", "viability robust z-score": -1.31, "caspase robust z-score": -0.38, "outcome": "inactive"}
{"gene": "EMC10", "viability hit class": "no change", "caspase hit class": "no change", "viability robust z-score": -0.66, "caspase robust z-score": 0.51, "outcome": "inactive"}
